# According to the supplement of paper PMC12889115:
# The other results are listed elsewhere or left out. These are raw signals, not scaled to a control.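 Primary screen: polymyxin B was added at a level permeabilizing Salmonella outer membranes while sparing inner membranes. DMSO wells, both with and without polymyxin B, established maximum growth. Plate-to-plate variation meant each plate was ranked on its own, and the lowest-OD600 compounds were selected as hits.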
# Tested on: Salmonella enterica serovar Typhimurium SL1344
# Experiment: bacterial growth OD600 after 18 h with compound and polymyxin B; higher = more bacterial growth (less inhibition)
# Settings: 50 µM, Mueller-Hinton broth
SMILES,bacterial growth OD600 (polymyxin B 1 µg/mL),bacterial growth OD600 (polymyxin B 0.75 µg/mL)
CCOCCNC(=O)C1CCC(=O)N(CCc2ccc(Cl)cc2)C1 (configuration not stated),0.906,–
COc1cccc2c1OCC(NCc1ccccc1)C2 (configuration not stated),–,0.907
O=C(NCCN1CCCC1)c1cc(Cl)ccc1OC1CCN(C2CCCC2)CC1,0.733,–
CCCN(CC1CC1)C(=O)c1cn(CC(C)C)cc(C(=O)NCC)c1=O,–,0.794
C=CCCC(=O)N1CCC(C2CCN(CCc3ccccc3)CC2)C1 (configuration not stated),0.925,–
O=C(NCCc1ccccc1C(F)(F)F)c1cc(CN2CCCC(O)C2)on1 (configuration not stated),–,0.785
COCc1ccc(C(=O)Nc2ccc(-c3nc(CNC(=O)c4ccc(F)cc4F)c(C)o3)cc2)o1,–,0.799
Cc1cnc(C(=O)NC2CCCc3nc(-c4ccccc4)ncc32)cn1 (configuration not stated),0.931,–
CCc1cc(C(=O)NC2CC(=O)N(CC3CCCCC3)C2)n(C)n1 (configuration not stated),0.871,–
CN(CCN1CCCCC1)C(=O)CCc1nnc(-c2ccc3c(c2)OCO3)o1,–,0.76
CC(C)Cc1ccc(CN2CCCC(NC(=O)C3CCN(Cc4ccco4)CC3)C2)cc1 (configuration not stated),0.906,–
CCc1ccc(CN2CCc3c(C(=O)N4CCc5ccccc5C4)c(OC)cc(=O)n3CC2)cc1,–,0.732
O=C(NCC1CCCN(C(=O)c2cncs2)C1)c1ccc(-c2ccccc2)cc1 (configuration not stated),0.921,–
CC(=O)Nc1cnn(-c2ccc(C(=O)N3CCCC(c4ccccc4)C3)cc2)c1 (configuration not stated),–,0.915
O=C(CC(c1cccc(O)c1)c1ccccc1O)NC1CCCCC1 (configuration not stated),0.502,–
OCC1CCN(c2ncc3c(n2)CCCC3NCc2ccc3c(c2)CCO3)CC1 (configuration not stated),–,0.837

SMILES,bacterial growth OD600 (polymyxin B 1 µg/mL),bacterial growth OD600 (polymyxin B 0.75 µg/mL)
COc1ccc(/C=C/C(=O)N(C)C2CCCN(C3Cc4ccccc4C3)C2)cc1OC (configuration not stated),0.88,–
CCC(=O)NC1CCCc2nc(-c3cccnc3)ncc21 (configuration not stated),1.1,–
CN(Cc1ccccn1)C(=O)c1cc(COc2ccc(F)c(F)c2)on1,0.652,–
Cc1ccc2c(C)nc(N3CCC(C(=O)NC4CCOC(C)(C)C4)CC3)nc2c1 (configuration not stated),–,0.809
CN(CCc1ccccc1)C(=O)c1nc2sccn2c1CNC1CCC1,0.855,–
Cc1nc(CN(C)C(=O)C2CCC(=O)N(CCCc3ccccc3)C2)cs1 (configuration not stated),0.884,–
O=C(CC1(c2ccccc2)CC(=O)N(Cc2cccs2)C1=O)N1CCN(c2ccccc2)CC1 (configuration not stated),–,0.737
Cc1ccc2oc(C(=O)N(C)Cc3cccc4cccnc34)c(C)c2c1,–,0.069
COc1ccc(-c2n[nH]cc2CN2C[C@H]3OC(=O)N(C4CCCC4)[C@H]3C2)cc1,–,0.803
COCC1CCCN(C(=O)c2cc(Cn3nc(C)cc3C)[nH]n2)C1 (configuration not stated),–,0.772
CCCCN(C)C(=O)CCc1nnc(CCc2ccccc2OC)o1,0.894,–
CCN1CCN(C2(C(=O)NCCn3cccn3)Cc3ccccc3C2)CC1,–,0.999
CCOC(=O)C1(CCc2ccccc2)CCN(C(=O)c2occc2C)CC1,0.007,–
CCN1CCN(CC(=O)NCc2cc(C)cc3c(C)c(C)[nH]c23)CC1,1.01,–
CCOC(=O)C1(CCc2ccccc2)CCCN(Cc2cnc(SC)nc2)C1 (configuration not stated),-0.001,–
Cc1cc(C)n(Cc2cc(C(=O)NCc3cccs3)n[nH]2)n1,0.932,–

# A different layout for some results above.
SMILES | bacterial growth OD600 (polymyxin B 1 µg/mL) | bacterial growth OD600 (polymyxin B 0.75 µg/mL)
Cc1ccc2oc(C(=O)N(C)Cc3cccc4cccnc34)c(C)c2c1 | – | 0.069
COc1ccc(-c2n[nH]cc2CN2C[C@H]3OC(=O)N(C4CCCC4)[C@H]3C2)cc1 | – | 0.803
